Some of the results follow.
These targets were tested with Cc1nc(Nc2ncc(C(=O)Nc3c(C)cccc3Cl)s2)cc(N2CCN(CCO)CC2)n1 [dasatinib] (assay: log2 fold change, soluble protein after heating vs DMSO (PISA); higher = thermal stabilisation; K562 lysate, 10 uM; active = over 0.2 and 3.5 SD of the protein, either way, in both replicates (recomputed)).
Method in brief: (§1)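 K562 pellets were dounce-homogenised in PBS pH 7.4 containing 1 mM MgCl2, and the crude extract, at 1 mg/mL protein, was exposed to 10 μM compound for 30 min. Aliquots were heated for 3 min across 48°C-58°C, pooled, brought to 0.5% NP-40 at 4°C and spun at 21,000xg for 90 min, with the supernatant taken as soluble protein. TMTpro 16plex LC-MS/MS with equalised channel sums quantified that protein. Values are log-two fold changes in thermal stability relative to solvent controls, taken from duplicates.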

Sequences of proteins named here, by UniProt entry; tags and fusion partners are left off. A change or cut given only in a name is not applied to a line headed by its entry.
UniProt Q92610: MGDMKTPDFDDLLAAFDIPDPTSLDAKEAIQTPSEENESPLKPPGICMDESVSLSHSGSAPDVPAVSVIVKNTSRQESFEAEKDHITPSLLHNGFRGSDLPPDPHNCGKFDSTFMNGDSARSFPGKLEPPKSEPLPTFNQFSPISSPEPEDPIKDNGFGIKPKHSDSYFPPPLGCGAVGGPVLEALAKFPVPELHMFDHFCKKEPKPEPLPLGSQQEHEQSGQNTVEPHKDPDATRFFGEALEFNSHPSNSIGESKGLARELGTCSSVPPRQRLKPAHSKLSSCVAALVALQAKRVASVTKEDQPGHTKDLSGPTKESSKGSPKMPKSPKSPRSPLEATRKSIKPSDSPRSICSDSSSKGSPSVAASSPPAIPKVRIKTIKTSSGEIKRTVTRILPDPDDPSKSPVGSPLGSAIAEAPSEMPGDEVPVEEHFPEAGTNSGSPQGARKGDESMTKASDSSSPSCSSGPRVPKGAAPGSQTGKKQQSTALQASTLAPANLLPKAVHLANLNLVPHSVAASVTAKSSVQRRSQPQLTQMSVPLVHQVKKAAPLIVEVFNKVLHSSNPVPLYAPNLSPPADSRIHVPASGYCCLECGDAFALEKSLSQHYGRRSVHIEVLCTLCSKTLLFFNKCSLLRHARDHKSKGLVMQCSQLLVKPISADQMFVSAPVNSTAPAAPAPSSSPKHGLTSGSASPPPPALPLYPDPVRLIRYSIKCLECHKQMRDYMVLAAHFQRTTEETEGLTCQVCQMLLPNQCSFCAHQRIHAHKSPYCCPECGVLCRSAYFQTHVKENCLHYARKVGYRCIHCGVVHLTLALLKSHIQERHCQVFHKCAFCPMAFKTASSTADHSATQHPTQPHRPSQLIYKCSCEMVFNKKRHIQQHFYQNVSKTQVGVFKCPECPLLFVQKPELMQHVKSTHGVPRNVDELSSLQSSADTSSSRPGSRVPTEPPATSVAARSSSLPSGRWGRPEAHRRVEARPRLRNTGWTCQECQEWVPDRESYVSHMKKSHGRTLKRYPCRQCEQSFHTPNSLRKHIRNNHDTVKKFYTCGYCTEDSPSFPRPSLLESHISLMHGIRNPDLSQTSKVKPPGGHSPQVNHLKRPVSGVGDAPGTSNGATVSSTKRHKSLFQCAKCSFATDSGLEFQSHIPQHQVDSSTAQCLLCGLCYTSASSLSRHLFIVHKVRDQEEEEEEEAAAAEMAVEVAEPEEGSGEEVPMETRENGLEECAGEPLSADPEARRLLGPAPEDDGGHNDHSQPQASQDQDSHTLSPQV
UniProt Q6NSZ9: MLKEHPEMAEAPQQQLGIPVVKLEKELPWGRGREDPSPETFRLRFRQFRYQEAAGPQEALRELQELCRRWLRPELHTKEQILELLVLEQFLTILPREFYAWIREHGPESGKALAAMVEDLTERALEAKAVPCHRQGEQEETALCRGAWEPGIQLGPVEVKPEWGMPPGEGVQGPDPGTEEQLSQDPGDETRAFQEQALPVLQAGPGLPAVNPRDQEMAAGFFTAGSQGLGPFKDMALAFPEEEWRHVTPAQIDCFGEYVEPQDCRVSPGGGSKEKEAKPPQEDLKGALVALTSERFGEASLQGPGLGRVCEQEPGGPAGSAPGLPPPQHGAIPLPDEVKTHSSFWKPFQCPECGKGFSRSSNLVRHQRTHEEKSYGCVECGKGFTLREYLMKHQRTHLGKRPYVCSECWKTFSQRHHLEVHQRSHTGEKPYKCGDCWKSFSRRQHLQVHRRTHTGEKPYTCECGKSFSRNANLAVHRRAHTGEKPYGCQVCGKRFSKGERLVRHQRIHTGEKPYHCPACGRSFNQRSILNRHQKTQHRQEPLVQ
UniProt Q19AV6: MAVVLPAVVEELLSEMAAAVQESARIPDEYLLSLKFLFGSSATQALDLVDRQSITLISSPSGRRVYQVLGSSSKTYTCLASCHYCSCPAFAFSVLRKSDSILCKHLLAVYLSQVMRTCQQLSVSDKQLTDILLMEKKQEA
UniProt Q9Y2X9: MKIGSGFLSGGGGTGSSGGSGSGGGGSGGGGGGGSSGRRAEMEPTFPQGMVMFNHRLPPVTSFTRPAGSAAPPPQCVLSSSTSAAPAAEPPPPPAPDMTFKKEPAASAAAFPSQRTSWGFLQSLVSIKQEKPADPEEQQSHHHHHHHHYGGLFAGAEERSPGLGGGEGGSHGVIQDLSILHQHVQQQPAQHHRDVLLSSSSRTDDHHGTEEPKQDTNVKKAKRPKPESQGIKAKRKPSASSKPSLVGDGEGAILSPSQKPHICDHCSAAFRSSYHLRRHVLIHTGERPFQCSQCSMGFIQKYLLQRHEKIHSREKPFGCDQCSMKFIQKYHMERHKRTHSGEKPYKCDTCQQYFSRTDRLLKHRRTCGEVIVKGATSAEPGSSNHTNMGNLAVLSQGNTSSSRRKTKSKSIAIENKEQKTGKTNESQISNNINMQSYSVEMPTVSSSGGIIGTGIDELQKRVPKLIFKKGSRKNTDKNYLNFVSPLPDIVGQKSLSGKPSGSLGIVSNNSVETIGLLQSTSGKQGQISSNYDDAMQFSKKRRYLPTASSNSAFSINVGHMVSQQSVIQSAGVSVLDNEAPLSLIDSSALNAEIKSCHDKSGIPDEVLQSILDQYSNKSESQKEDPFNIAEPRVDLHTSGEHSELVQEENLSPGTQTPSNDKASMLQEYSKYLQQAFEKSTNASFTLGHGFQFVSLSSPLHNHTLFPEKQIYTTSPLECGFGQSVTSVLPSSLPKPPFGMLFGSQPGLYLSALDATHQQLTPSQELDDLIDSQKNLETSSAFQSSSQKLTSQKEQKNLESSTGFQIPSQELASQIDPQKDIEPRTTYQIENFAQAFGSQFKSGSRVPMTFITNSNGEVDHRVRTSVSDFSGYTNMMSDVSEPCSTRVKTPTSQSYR
UniProt Q2TB10: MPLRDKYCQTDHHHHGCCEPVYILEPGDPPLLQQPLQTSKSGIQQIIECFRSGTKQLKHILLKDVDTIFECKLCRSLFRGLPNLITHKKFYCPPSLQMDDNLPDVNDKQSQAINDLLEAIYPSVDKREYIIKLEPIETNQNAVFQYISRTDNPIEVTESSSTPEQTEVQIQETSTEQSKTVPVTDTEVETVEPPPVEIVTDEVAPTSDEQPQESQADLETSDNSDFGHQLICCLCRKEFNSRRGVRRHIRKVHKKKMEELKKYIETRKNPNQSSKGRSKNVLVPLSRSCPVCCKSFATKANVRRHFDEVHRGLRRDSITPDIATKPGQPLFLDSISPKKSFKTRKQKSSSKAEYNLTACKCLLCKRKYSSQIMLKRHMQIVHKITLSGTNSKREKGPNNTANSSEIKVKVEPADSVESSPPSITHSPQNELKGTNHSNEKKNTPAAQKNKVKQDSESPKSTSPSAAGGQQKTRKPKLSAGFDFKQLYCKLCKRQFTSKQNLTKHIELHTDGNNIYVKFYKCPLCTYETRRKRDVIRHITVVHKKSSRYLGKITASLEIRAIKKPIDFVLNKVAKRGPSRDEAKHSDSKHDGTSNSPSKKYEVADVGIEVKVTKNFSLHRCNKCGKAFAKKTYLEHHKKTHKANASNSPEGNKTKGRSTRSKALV
UniProt P59923: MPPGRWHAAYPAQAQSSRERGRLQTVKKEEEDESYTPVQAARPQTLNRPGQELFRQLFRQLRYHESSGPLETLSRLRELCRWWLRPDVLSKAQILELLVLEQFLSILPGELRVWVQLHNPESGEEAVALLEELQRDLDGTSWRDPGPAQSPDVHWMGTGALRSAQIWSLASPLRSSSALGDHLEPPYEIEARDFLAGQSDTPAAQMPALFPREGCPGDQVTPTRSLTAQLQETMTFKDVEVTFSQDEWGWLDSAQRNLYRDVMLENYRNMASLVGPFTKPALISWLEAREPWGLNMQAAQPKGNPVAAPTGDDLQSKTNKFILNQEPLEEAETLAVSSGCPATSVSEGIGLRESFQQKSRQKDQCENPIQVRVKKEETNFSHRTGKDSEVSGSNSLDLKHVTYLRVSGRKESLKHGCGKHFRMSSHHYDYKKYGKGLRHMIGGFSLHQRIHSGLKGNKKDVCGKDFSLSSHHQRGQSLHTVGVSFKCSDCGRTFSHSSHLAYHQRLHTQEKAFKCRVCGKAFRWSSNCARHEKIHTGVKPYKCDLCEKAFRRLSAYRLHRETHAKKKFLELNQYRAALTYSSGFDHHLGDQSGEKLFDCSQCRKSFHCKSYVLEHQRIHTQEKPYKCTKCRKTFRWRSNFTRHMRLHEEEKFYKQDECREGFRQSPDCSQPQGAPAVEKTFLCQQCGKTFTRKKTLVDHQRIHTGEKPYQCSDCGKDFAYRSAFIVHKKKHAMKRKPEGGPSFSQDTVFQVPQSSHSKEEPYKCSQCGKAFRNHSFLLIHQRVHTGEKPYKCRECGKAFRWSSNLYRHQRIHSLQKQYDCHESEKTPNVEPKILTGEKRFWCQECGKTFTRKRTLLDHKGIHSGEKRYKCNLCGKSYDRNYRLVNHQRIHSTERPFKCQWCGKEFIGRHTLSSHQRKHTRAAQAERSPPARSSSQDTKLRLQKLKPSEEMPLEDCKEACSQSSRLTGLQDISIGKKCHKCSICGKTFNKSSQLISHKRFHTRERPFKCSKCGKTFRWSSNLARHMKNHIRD
UniProt A8K8V0: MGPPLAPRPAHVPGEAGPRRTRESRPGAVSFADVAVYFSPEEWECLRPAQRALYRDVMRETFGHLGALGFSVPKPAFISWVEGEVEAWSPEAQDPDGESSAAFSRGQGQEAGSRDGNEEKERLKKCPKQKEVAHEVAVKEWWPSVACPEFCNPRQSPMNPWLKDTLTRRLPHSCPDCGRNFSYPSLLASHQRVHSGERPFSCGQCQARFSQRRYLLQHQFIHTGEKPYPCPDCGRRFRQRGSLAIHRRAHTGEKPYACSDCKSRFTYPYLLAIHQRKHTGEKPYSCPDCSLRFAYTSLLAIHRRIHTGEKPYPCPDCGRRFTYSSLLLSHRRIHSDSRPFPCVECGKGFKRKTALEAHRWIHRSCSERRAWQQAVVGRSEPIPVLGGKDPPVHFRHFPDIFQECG
UniProt Q7L945: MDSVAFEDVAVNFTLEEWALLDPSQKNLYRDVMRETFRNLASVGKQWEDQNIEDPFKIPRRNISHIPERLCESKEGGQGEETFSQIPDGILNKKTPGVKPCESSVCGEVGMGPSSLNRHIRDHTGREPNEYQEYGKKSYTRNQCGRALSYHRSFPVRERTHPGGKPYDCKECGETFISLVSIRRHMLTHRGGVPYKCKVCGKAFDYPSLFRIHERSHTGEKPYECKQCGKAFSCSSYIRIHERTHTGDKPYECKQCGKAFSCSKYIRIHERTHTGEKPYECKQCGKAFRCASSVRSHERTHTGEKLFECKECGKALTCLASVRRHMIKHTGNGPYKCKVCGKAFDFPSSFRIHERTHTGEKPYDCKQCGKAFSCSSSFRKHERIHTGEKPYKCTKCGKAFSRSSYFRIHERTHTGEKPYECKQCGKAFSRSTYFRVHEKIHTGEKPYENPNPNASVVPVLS
UniProt Q969J2: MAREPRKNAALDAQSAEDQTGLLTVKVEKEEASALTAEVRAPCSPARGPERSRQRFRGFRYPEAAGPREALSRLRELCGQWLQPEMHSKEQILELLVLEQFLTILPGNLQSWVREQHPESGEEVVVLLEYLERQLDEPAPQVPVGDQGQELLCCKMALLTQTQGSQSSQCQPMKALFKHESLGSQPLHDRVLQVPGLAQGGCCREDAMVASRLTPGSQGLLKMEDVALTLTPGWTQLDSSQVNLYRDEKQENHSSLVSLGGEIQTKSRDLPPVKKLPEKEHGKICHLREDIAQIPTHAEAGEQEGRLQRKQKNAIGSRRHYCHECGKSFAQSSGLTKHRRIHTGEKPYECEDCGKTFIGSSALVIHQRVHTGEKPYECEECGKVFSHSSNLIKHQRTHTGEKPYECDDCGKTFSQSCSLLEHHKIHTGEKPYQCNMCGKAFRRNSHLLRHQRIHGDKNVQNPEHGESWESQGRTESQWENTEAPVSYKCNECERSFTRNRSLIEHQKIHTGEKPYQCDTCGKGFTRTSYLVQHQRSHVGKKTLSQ
UniProt Q96E35: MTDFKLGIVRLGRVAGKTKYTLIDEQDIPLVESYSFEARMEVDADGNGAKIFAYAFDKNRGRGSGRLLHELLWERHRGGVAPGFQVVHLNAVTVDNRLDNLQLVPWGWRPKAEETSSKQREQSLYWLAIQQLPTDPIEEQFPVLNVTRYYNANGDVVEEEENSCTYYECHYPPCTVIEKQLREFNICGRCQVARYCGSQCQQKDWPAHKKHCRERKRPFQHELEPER
UniProt K7EIQ3: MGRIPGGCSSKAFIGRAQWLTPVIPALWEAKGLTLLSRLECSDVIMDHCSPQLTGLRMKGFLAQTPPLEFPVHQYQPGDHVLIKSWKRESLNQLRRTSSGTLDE
UniProt Q9UDW3: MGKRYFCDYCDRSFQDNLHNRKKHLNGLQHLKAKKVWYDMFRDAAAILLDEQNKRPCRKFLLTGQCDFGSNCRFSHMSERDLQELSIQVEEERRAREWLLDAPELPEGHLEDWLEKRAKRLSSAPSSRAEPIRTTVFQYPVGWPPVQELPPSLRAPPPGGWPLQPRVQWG

log2 fold change, inactive:
ZNF225 (UniProt Q9UK10) -0.117
ZNF407 (UniProt Q9C0G0) -0.131
ZNF592 (UniProt Q92610) -0.046
ZSCAN25 (UniProt Q6NSZ9) -0.172
ZSWIM7 (UniProt Q19AV6) -0.207
ZNF281 (UniProt Q9Y2X9) -0.041
ZNF800 (UniProt Q2TB10) -0.044
ZNF445 (UniProt P59923) 0.083
ZNF785 (UniProt A8K8V0) 0.105

The targets below were run with Cn1cc(-c2ccc3c(c2)CCN3C(=O)Cc2cccc(C(F)(F)F)c2)c2c(N)ncnc21 in the same assay as above.
Method in brief: as §1

log2 fold change, inactive:
ZNF225 (UniProt Q9UK10) -0.389
ZNF407 (UniProt Q9C0G0) 0.191
ZNF592 (UniProt Q92610) 0.012
ZSCAN25 (UniProt Q6NSZ9) -0.065
ZSWIM7 (UniProt Q19AV6) 0.133
ZNF281 (UniProt Q9Y2X9) 0.031
ZNF800 (UniProt Q2TB10) 0.005
ZNF445 (UniProt P59923) -0.026
ZNF785 (UniProt A8K8V0) 0.317

These targets were tested with Cn1cc(CNCC2CCN(c3ncc(C(=O)NO)cn3)CC2)c2ccccc21 [quisinostat] in the same assay as above.
Method in brief: as §1

log2 fold change, inactive:
ZRSR2 (UniProt Q15696) -0.082
ZNF280A, A0A0G2JN84 -0.138
ZNF410 isoform 5 (UniProt Q86VK4) 0.173
ZNF16 (UniProt P17020) -0.017
ZNF592 (UniProt Q92610) -0.16
ZNF100 (UniProt Q8IYN0) -0.198
ZNF595 (UniProt Q8IYB9) -0.027
ZNF627 (UniProt Q7L945) 0.023
ZNF646 (UniProt O15015) 0.074
ZKSCAN4 (UniProt Q969J2) -0.038
ZSCAN26 (UniProt Q16670) 0.169
ZNF281 (UniProt Q9Y2X9) 0.151
ZMYND19 (UniProt Q96E35) 0.154
ZNF414 isoform 2 (UniProt Q96IQ9) -0.04
ZNF652 (UniProt Q9Y2D9) 0
ZNF655 isoform 3 (UniProt Q8N720) -0.317
ZNF770 (UniProt Q6IQ21) 0.044
ZNF852 (UniProt Q6ZMS4) -0.14
ZNF76 (UniProt P36508) 0.013

What follows are targets tested with NC(=O)Nc1cc(-c2cccc(F)c2)sc1C(=O)N[C@H]1CCCNC1 in the same assay as above.
Method in brief: as §1

log2 fold change, inactive:
ZRSR2 (UniProt Q15696) 0.06
ZNF280A, A0A0G2JN84 -0.062
ZNF410 isoform 5 (UniProt Q86VK4) -0.087
ZNF16 (UniProt P17020) -0.007
ZNF592 (UniProt Q92610) 0.165
ZNF100 (UniProt Q8IYN0) 0.198
ZNF595 (UniProt Q8IYB9) -0.142
ZNF627 (UniProt Q7L945) 0.113
ZNF646 (UniProt O15015) 0.057
ZKSCAN4 (UniProt Q969J2) -0.064
ZSCAN26 (UniProt Q16670) -0.093
ZNF281 (UniProt Q9Y2X9) -0.028
ZMYND19 (UniProt Q96E35) -0.005
ZNF414 isoform 2 (UniProt Q96IQ9) 0
ZNF652 (UniProt Q9Y2D9) -0.036
ZNF655 isoform 3 (UniProt Q8N720) -0.011
ZNF770 (UniProt Q6IQ21) 0.095
ZNF852 (UniProt Q6ZMS4) -0.138
ZNF76 (UniProt P36508) -0.045

What follows are targets tested with NC(=O)c1cnc(N[C@@H]2CCCC[C@@H]2N)nc1Nc1cccc(-n2nccn2)c1 in the same assay as above.
Method in brief: as §1

log2 fold change, inactive:
ZNF407 (UniProt Q9C0G0) -0.023
ZNF592 (UniProt Q92610) -0.08
ZNF48 (UniProt Q96MX3) -0.06
ZKSCAN4 (UniProt Q969J2) 0.061
ZNF280D (UniProt Q6N043) 0.111
ZNF358 (UniProt Q9NW07) -0.084
ZNF771 (UniProt Q7L3S4) 0.025
ZNF800 (UniProt Q2TB10) 0.002
ZNF852 (UniProt Q6ZMS4) 0.11
ZNF785 (UniProt A8K8V0) -0.058
ZNF512B (UniProt Q96KM6) 0.018

Each target was assayed with NC1(c2ccc(-c3nc4ccn5c(=O)[nH]nc5c4cc3-c3ccccc3)cc2)CCC1 in the same assay as above.
Method in brief: as §1

log2 fold change, inactive:
ZNF561-AS1 (UniProt K7EIQ3) 0.123
ZNF225 (UniProt Q9UK10) -0.388
ZNF407 (UniProt Q9C0G0) -0.116
ZNF592 (UniProt Q92610) -0.094
ZSCAN25 (UniProt Q6NSZ9) -0.025
ZNF627 (UniProt Q7L945) -0.062
ZMAT5 (UniProt Q9UDW3) 0.35
ZSWIM7 (UniProt Q19AV6) 0.119
ZKSCAN4 (UniProt Q969J2) -0.049
ZNF358 (UniProt Q9NW07) 0.111
ZNF281 (UniProt Q9Y2X9) 0.02
ZMYND19 (UniProt Q96E35) 0.071
ZNF525 (UniProt J3KR51) -0.165
ZNF771 (UniProt Q7L3S4) -0.222
ZNF800 (UniProt Q2TB10) -0.126
ZNF445 (UniProt P59923) -0.313
ZMYM5 (UniProt Q9UJ78) 0.029
ZNF852 (UniProt Q6ZMS4) -0.058
ZNF76 (UniProt P36508) -0.077

Reference: the supplement of paper PMC10849652
